Results as given in patent US4073890 (dated 1978).

Assay: peptide synthesis
Conditions: coupling step, acetate

Compared with Cbz-FFYTPK(Boc)A-OtBu, Cbz-TPK(Boc)A-OtBu is lower in step yield: 100% for the first, 93% for the second.

First: Cbz-[Arg(NO2)]GFFYTPK(Boc)A-OtBu
Second: Di-Z-α,γ-Dab-Arg(NO2)-Gly-Phe-Phe-NH2
The step yield of the first is higher: 88% for the first, 78% for the second.

Going from “Z-β-Ala-Arg(NO2)-Gly-Phe-Phe-Tyr-Thr-Pro-O^t Bu” to Zε-Acap-Arg-Pro-Phe-Phe-Tyr-NH2, the step yield rises from 67.4% to 79.1%.

Compared with di-Z-Lys-Arg(NO2)-Gly-Phe-Phe-NH2, “di-Z-α, γ-Dab-Arg(NO2)-Gly-Phe-Phe-Tyr-NH2” is lower in step yield: 77% for the first, 51% for the second.

Same assay, conditions: coupling step, p-toluenesulfonate

Cbz-GRPFFY-NH2 gave a step yield of 89.5%.

Same assay, conditions: late stage modification step, acetate

Work on [βAla]RGFF-NH2 yielded a step yield of 66%.

Square brackets hold non-standard residues; d marks the D form. Ends that are not written are not given here. * marks the point of attachment. Arg(NO2) = N=C(NCCC[C@H](N)C(=O)O)N[N+](=O)[O-]; Cbz = O=C(OCc1ccccc1)*; Boc = CC(C)(C)OC(=O)*; OtBu = CC(C)(C)O*; βAla = NCCC(=O)O
